Measurements from ChEMBL document CHEMBL5046322, “Discovery of SHR2415, a Novel Pyrrole-Fused Urea Scaffold ERK1/2 Inhibitor” (ACS Med Chem Lett, 2022).

Amino acid sequences for entries named in this document (tags omitted). A change or cut given only in a name is not applied to a line headed by its entry.
UniProt P11712, whole entry: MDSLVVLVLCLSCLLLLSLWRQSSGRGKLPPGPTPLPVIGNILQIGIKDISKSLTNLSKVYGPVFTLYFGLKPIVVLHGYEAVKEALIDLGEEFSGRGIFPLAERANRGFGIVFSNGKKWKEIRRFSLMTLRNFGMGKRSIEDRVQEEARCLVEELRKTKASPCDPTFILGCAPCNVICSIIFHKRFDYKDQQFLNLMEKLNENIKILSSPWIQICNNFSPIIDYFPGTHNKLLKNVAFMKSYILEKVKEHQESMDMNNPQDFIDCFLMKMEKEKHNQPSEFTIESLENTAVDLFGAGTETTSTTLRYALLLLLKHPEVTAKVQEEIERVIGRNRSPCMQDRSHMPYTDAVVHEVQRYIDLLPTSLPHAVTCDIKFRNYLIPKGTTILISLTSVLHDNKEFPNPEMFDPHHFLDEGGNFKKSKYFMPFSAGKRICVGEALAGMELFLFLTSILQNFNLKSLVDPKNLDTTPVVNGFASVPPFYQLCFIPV
UniProt Q12809: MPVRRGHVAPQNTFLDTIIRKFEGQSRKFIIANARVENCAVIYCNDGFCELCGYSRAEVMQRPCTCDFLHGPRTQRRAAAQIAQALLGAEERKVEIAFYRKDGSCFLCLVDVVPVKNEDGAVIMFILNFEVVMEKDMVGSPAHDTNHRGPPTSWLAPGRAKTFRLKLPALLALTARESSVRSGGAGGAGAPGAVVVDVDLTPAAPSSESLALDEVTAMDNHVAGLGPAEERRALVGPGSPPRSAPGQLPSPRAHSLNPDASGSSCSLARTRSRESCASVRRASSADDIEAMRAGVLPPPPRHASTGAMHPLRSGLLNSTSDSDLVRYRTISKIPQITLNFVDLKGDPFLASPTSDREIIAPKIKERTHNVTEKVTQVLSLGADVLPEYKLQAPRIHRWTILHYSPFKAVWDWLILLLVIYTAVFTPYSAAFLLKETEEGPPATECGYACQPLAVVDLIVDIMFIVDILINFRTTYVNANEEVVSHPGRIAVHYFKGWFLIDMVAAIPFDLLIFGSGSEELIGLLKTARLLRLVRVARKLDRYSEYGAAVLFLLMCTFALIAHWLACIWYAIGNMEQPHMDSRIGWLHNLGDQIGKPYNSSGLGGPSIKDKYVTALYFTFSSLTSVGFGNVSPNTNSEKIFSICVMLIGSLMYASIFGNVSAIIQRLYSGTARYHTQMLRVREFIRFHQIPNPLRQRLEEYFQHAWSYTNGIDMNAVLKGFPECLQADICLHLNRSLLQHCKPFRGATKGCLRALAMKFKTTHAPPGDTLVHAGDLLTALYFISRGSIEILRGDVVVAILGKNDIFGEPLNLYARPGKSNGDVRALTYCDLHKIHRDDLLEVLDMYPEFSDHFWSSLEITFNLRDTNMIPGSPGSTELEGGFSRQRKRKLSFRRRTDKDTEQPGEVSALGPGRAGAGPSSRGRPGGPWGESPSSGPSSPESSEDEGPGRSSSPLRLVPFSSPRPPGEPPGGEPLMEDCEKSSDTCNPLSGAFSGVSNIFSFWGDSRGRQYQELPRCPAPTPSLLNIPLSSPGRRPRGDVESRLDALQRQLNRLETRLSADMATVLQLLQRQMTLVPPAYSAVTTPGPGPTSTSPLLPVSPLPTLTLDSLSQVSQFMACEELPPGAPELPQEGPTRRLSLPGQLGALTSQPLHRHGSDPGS

Columns and labels:
Cytochrome P450 2C9 = Cytochrome P450 2C9 (Homo sapiens, UniProt P11712); test: Inhibition of CYP2C9 in human liver microsomes
[1] = target: Voltage-gated inwardly rectifying potassium channel KCNH2 (Homo sapiens, UniProt Q12809)

## Cc1cnc(Nc2ccnn2C)nc1-c1cc2n(c1)C(=O)N([C@H](CO)c1cccc(Cl)c1)C2
Cytochrome P450 2C9
  IC50: 790 nM
[1]
  IC50: 14 nM
